# Experimental data: patent US9850285 (dated 2017)
# Experiment: general procedure: solution-phase peptide synthesis; EDAC.HCl/HOBT
# Details: cyclisation step
substance,measurement,value
Eptifibatide,crude HPLC purity,90%
